Some of these results come from one statement about several compounds together.
System: sandwich-cultured hepatocytes
Test: Cumulative uptake, Biliary Excretion Index and in vitro biliary clearance in 96-hr sandwich-cultured hepatocytes
Assay type: in vitro ADME, rat
Conditions: 10-min cumulative uptake, Equation 4
Experimental: To prepare sandwich-cultured hepatocytes, neutralized collagen solution (0.1 ml, about 1.5 to about 3.0 mg/ml, pH 7.4) was added to the monolayers 24 hr after the cells were seeded. […] Medium was changed on a daily basis until the fourth day after the cells were seeded. These hepatocytes were referred to as 96-hr or long-term cultured hepatocytes.
Hepatocytes cultured in a collagen-sandwich configuration were incubated in 3 ml standard buffer or Ca^2+-free buffer at 37° C. for 10 min. After removing the incubation buffer, uptake was initiated by addition of 3 ml standard buffer containing substrate to each dish. […] An aliquot (1 ml) of lysate was analyzed by liquid scintillation spectrometry. […] All values for substrate uptake into cell monolayers were corrected for nonspecific binding to the collagen by subtracting the substrate uptake determined in the appropriate control dishes in the absence of cells as described previously.
Uptake data were normalized to the protein content and expressed as mean±SD from 3-4 separate preparations of hepatocytes. Statistical differences between mean values for the 10-min cumulative substrate uptake in the presence and absence of Ca^2+ were determined by the use of the well-known Student's t-test. […]
Biliary excretion of substrates in the monolayers was quantitatively assessed by the Biliary Excretion Index based on Equation 3: […]

In the case of `CN(Cc1cnc2nc(N)nc(N)c2n1)c1ccc(C(=O)N[C@@H](CCC(=O)O)C(=O)O)cc1` [methotrexate], the “in vitro biliary clearance” value is reported as 4 to 13 mL/min/kg.
